Source: US7829325B2, “Drug testing with bio-artificial organ slices including for example those derived from liver” (HepaHope, Inc., priority 2003, dated 2010)

Test system: liver slices
Conditions: 2 mg lidocaine dose; in presence of HL 100; FIG. 3A

## CCN(CC)CC(=O)Nc1c(C)cccc1C [lidocaine]
  time to reduce lidocaine levels to non-toxic levels: ≤ 30 min
